Test results taken from patent US6416737B1, “Increasing bone strength with selected bisphosphonates” (Board of Trustees of the University of Arkansas, priority 1998, dated 2002).
At least one compound was matched to its structure with a doubt left. Some of these results come from one statement about several compounds together.

What was measured:
MLO-Y4 osteocytic cells = system: MLO-Y4 osteocytic cells
Description: The murine long bone-derived osteocytic cell line MLO-Y4 was provided by Dr. Lynda Bonewald (University of Texas Health Center at San Antonio, Tex.). Cells were cultured in phenol red-free αMEM supplemented with 5% FBS, 5% bovine calf serum, 100 U/ml penicillin and 100 μg/ml streptomycin. Cells were plated at 1-2×10^4 cells/cm^2 on collagen type I coated plates, as described previously (Kato, et al., 1997. J. Bone Miner. Res. 12:2014-2023). Murine calvaria cells were obtained from neonatal (3- to 6-day old) C57BL/6J mice by controlled digestion with collagenase, as previously described (Bellido, et al., 1997. Endocrinology 138:3666-3676). […]
Nonadherent cells were combined with adherent cells released from the culture dish using trypsin-EDTA, resuspended in medium containing serum, and collected by centrifugation. […] At least 100 cells per condition were counted.
MLO-Y4 osteocytic cells and calvaria osteoblastic cells were treated for 1 hour in the absence or presence of different BPs or sCT. […] The effect of PD98059 (50 μM) or UO126 (1 μM) was evaluated by pretreating the cells with the inhibitors for 30 min before adding the BPs or sCT. […] More than 500 cells per condition were analyzed. Apoptosis of parental MLO-Y4 or calvaria cells was quantified by trypan blue staining (Jilka, et al., 1998. J. Bone Miner. Res. 13:793-802). […] At least 100 cells per condition were counted. […]

[1] = system: osteoblastic cells derived from murine calvaria; assay: Apoptosis of osteoblastic cells derived from murine calvaria by trypan blue uptake; type: cell-based; details: etoposide 50 μg/ml, TNF-α, dexamethasone 10^−6 M; 6 h
ERK1/2 = ERK1/2 phosphorylation in MLO-Y4 cells by Western blot; type: cell-based, murine; details: 10^−7 M
Description: Monolayers were washed with cold 20 mM Tris-HCl (pH 7.5), 150 mM NaCl, 1 mM sodium orthovanadate and lysed in the lysis buffer mentioned above. Insoluble material was pelleted in a microcentrifuge at 14,000×rpm for 10 mn. […] Proteins (10 μg) were separated on 7.5% SDS-polyacrylamide gels and electrotransferred to a polyvinylidene difluoride membrane. Immunoblotting was performed using a mouse monoclonal antibody recognizing tyrosine phosphorylated ERK1/2, or a rabbit polyclonal antibody recognizing total ERK1/2, followed by incubation with either an antimouse or an antirabbit antibody conjugated with horseradish peroxidase. Blots were developed using Chemiluminescence according to the manufacturer's recommendations. Quantitation of the intensity of the bands in the autoradiograms was performed using a scanner (Microtek Lab., Redondo Beach, Calif.).

Row | Structure (SMILES) | number of living MLO-Y4 cells (MLO-Y4 osteocytic cells; 10^−6 M dexamethasone 24 h, 10^−7 M alendronate 1 h pretreatment) | percentage of cells stained with trypan blue (induction of apoptosis) (MLO-Y4 osteocytic cells; MLO-Y4, 6 h, dexamethasone 10^−6 M, etoposide 50 μg/ml, TNF-α 1 nM) | induction of apoptosis of osteoblastic cells [1] | time of maximum ERK phosphorylation (ERK1/2) | time of return of ERK phosphorylation to basal levels (ERK1/2)
1 | C[C@@H]1C[C@H]2[C@@H]3CCC4=CC(=O)C=C[C@]4(C)[C@@]3(F)[C@@H](O)C[C@]2(C)[C@@]1(O)C(=O)CO [dexamethasone] | decreased significantly | increased the percentage of cells stained with trypan blue | induced apoptosis | – | –
2 | CN(C)CCC(N)(P(=O)(O)O)P(=O)(O)O [IG-9402, 1-amino-3-(N,N-dimethylamino)-propyliden-1,1-bisphosphonic acid] | – | – | – | 1 to 2 min | ≤ 15 min
